These are yes or no findings as the source states them, for the method shown. Binding seen in cells or lysates may run through a third protein. A yes stands for co-enrichment or nearness to the bait. Other partners may have been found.
T1: IFT88, endogenous in NIH3T3 cells (mouse (endogenous in NIH3T3)) (UniProt Q61371)
T1 sequence: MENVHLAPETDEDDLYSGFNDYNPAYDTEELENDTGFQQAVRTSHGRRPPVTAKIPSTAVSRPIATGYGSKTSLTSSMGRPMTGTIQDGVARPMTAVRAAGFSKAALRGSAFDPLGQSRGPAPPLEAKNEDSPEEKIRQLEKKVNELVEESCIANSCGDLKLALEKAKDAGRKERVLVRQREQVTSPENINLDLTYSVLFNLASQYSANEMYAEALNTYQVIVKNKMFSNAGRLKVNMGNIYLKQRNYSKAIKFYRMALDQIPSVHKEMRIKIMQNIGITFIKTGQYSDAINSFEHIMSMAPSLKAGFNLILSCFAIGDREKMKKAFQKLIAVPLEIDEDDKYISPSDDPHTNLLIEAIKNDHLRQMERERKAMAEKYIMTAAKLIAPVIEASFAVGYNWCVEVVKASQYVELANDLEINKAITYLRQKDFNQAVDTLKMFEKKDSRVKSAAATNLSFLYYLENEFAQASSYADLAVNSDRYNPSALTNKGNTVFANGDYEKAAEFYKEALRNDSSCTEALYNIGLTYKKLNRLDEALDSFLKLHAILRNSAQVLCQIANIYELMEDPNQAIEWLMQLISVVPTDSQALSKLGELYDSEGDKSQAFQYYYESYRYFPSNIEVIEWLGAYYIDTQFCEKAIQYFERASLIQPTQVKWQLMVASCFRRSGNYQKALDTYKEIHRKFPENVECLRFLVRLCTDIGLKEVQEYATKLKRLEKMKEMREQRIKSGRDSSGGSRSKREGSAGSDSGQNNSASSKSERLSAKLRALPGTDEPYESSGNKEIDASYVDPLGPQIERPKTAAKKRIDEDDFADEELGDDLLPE


Target: T1, IFT88, endogenous in NIH3T3 cells (mouse (endogenous in NIH3T3))
Experiment: affinity purification with mass spectrometry; endogenous IFT88 precipitated with anti-IFT88 (protein A agarose, 4 °C overnight) from NIH3T3 lysate, normal IgG as control; SDS-PAGE, silver staining, unique bands excised for LC/MS-MS

| binding | Binder |
| --- | --- |
| binds | diacylglycerol kinase δ (DGKδ), endogenous in NIH3T3 cells (enzyme, UniProt E9PUQ8 1-1220) MAAAAGAPPPGPPQPPPPPPPEESSDSEPEAEPGSPQKLIRKVSTSGQIRQKTILKEGMLTKQNNSFQRSKRRYFKLRGRTLYYAKTAKSIIFDEVDLTDASVAESSTKNVNNSFTVITPCRKLILCADNRKEMEDWIAALKTVQNKEHFEPTQYSMDHFSGMHNWYACSHARPTYCNVCREVLSGVTSHGLSCEVCKFKAHKRCAVRATSNCKWTTLASIGKDIIEDEDGIAMPHQWLEGNLPVSAKCIVCDKTCGSVLRLQDWRCLWCKAMVHTSCKESLVMKCPLGLCKVSVIPPTALNSIDSDGFWKATCPPSCTSPLLVFVNSKSGDNQGVKFLRRFKQLLNPAQVFDLMNGGPHLGLRLFQKFDTFRILVCGGDGSVGWVLSEIDSLNLHKQCQLGVLPLGTGNDLARVLGWGSACDDDTQLPQILAKLERASTKMLDRWSVMAYETKLPRQASSSTVTEDFSEDSEVQQILFYEDSVAAHLSKILTSDQHSVVISSAKVLCETVKDFVARVGKAYEKTTESSQESEVMAKKCSVLKEKLDSLLKTLDDESQASSSLSNPPPTIAEEAEDGDGSGNICSSTGDHLVGSACPSRPQIFRPREQLMLRANSLKKAIRQIIEHTEKAVDEQNAQTQEQQGFVLGLSESEKKDLKTDNRVCTSSVHSESCVIAKGRSQRKASRAPCEKLVSKGLSLGSSASLPPGTGSRDSLPALNTKILYPSVRAGMSGSLPGGSVISRLLINADPFNAEPENLEYYTEKCVMNNYFGIGLDAKISLDFNNKRDEHPEKCRSRTKNMMWYGVLGTKELLHRTYRNLEQKVLLECDGRPIPLPSLQGIAVLNIPSYAGGTNFWGGTKEDDTFAAPSFDDKILEVVAVFGSMQMAVSRVIKLQHHRIAQCRTVKISILGDEGVPVQVDGEAWIQPPGYIRIVHKNRAQTLTRDRAFENTLKSWEDKQKCELSRPPSFSLHPEILSEEEATQMDQFGQAAGGLIHSIREIAQSHRAMEQELAHAVNASSKAMERVYGKPRTAEGLNCSFVLEMVNNIRALRSETELLLAGKMALQLDPPQKERLGAALIEMDQQLRKLTDTPWLCQPLEPGEEESLQQNVMLDLTKRSRSGKFRLVTKFKKEKNNKNKEVHSNLGGPVHLWGTEEVAAWLEHLSLCEYKDIFTRHDIRGSELLHLERRDLKDLGVTKVGHMKRILCGIKELSRSSPAAEA |
| binds | Klra19, endogenous in NIH3T3 cells (protein, UniProt Q9JHV3 1-266) MSEPEVTYSTVRLHKSSGLQKLVRHEDTEGPREAGYRKCSGSWQLIVKALGILCFVLLITVAVLAIKIFQYGQHKQEIHEPLNYHHNFSNMQSDFNLKEEMLTNKSIDSRSGNELLESLNREQNRGYSETKTDVDSSQDTGTGVKYWFCYQTKCYYFIMNKNTWSGCKQNCQYYSLPLVKIADENELKFLQFQVIPDSYWIGLSYDKKKKQWAWIENGQSKLDMKIRKMNFKPEGCVLLSKRRLEDTNCNNSHYCICGKKLDKFPH |

From article PMC5509727
